doi:10.1101/2020.07.19.210252
Where two headings read alike, the source gives them in different places. For at least one entry, the source does not settle the construct or the ends of the probe. For part of these data: Negatives hold for the conditions tested. For part of these data: A weaker result is weaker than the reference pair of the same experiment.

Sequences of proteins named here, by UniProt entry; tags and fusion partners are left off.
UniProt P51114, whole entry: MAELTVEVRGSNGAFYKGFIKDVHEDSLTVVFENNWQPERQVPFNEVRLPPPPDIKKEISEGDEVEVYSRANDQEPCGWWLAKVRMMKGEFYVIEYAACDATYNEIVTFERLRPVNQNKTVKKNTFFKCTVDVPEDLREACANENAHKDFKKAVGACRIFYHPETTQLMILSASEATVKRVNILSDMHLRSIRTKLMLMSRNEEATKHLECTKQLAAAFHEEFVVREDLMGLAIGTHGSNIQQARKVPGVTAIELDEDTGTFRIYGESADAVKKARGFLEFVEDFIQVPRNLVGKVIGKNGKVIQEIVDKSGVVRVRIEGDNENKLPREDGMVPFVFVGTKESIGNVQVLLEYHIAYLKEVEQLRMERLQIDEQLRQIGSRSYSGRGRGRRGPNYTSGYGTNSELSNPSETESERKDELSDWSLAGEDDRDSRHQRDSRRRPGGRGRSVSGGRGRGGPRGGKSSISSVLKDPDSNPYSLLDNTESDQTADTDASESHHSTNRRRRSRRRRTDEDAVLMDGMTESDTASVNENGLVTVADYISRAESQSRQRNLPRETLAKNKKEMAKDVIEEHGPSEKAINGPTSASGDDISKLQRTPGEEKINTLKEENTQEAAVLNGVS

How the values were obtained:
FXR1-GST (Homo sapiens) = FXR1-GST (Homo sapiens) (UniProt P51114); assay: EMSA
GST = assay: EMSA

UUAAGAUUUACACAA [cMYC 3'UTR-ARE3]
binding result (FXR1-GST (Homo sapiens)): binds more weakly

AACAUAUUUAUUCUU [cMYC 3'UTR-ARE6]
binding result (FXR1-GST (Homo sapiens); described as poor affinity): binds more weakly

GAAAGAUUUAGCCAU [cMYC 3'UTR-ARE1]
binding result (GST): no binding
